For the experiment, the target named is FLAG-tagged Ku70 (human) (UniProt P12956). Kind of experiment: co-IP; HEK293T, co-transfected; RIPA lysate, 1 mg protein, anti-FLAG M2 affinity gel; blots with anti-ATG5 and anti-FLAG; cells with vehicle, etoposide, doxorubicin or cisplatin.

By UniProt entry, the sequences of proteins in these tests, tags left out.
UniProt P12956: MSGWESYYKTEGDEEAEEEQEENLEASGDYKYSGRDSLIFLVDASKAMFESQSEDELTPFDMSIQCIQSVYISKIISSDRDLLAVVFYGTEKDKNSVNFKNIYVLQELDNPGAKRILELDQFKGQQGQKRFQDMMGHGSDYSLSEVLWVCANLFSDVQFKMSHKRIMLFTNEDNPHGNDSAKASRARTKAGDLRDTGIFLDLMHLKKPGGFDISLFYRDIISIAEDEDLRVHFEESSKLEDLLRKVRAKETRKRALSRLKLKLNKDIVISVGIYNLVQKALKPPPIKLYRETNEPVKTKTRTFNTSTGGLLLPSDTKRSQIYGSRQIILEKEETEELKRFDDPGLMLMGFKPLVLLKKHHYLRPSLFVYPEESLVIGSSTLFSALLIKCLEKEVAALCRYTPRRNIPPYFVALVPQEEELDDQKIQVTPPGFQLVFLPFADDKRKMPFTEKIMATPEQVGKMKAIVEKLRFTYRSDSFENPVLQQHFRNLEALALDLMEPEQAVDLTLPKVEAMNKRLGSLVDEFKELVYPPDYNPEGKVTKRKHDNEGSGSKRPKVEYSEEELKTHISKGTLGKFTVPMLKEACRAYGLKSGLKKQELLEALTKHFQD

Results are given in words; binding and its absence hold for the method and conditions named. Binding seen in cells or lysates may run through a third protein. Some binding calls cover weakened binding; strength is not graded here.

B1: truncated ATG5 (1-192 a.a. of the human ATG5, lack of ATG5 C-terminal domain) (domain or fragment, UniProt Q9H1Y0 1-192)
chain: MTDDKDVLRDVWFGRIPTCFTLYQDEITEREAEPYYLLLPRVSYLTLVTDKVKKHFQKVMRQEDISEIWFEYEGTPLKWHYPIGLLFDLLASSSALPWNITVHFKSFPEKDLLHCPSKDAIEAHFMSCMKEADALKHKSQVINEMQKKDHKQLWMGLQNDRFDQFWAINRKLMEYPAEENGFRYIPFRIYQT
With B1, the binding result is “binds”.
